{"sequences": {"note": "Amino acid sequences for entries named in this document (tags omitted).", "UniProt P18054, whole entry, looked up": "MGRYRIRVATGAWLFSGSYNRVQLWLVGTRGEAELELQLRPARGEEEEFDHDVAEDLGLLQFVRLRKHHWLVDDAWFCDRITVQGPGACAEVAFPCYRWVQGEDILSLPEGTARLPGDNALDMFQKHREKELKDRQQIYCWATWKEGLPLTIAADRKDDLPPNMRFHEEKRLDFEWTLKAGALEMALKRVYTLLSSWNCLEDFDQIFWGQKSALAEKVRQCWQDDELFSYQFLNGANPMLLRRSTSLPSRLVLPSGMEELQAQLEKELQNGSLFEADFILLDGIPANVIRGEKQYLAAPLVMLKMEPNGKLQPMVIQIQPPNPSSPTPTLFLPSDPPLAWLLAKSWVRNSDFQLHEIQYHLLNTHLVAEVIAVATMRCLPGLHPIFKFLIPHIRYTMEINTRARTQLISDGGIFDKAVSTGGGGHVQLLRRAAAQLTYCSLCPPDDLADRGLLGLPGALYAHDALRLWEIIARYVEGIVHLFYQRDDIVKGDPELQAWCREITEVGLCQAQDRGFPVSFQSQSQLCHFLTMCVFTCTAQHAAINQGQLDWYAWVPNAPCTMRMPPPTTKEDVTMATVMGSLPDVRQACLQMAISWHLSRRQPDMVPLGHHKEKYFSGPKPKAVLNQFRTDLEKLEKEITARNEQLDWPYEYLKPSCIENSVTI"}, "source": "PubChem BioAssay AID1671190", "about": "(National Center for Advancing Translational Sciences (NCATS), 2021)", "note": "The campaign covered roughly 580,000 compounds. About 6,100 (1.1%) were called active. The shares of active, inactive and inconclusive entries below differ from those in the screen. The call rests on the fitted dose curve; in most records, active means well fitted inhibition curve with a large enough effect; inconclusive means small, poorly fitted or top-dose-only effect, or another doubt; inactive means no such curve, though single readings can be large or run the other way. A potency beside an inconclusive call is a rough fit, not a confirmed value. On the % scale 0 is the no-effect control and ±100 the full control effect; potency means the concentration at half of the fitted maximal effect.", "data": [{"biological_target": "Polyunsaturated fatty acid lipoxygenase ALOX12 (Homo sapiens) (UniProt P18054)", "assay": "Primary qHTS assay for inhibitors of human arachidonate 12S-lipoxygenase (ALOX12): Round 2", "conditions": "purified 12hLO, xylenol orange hydroperoxide absorbance; activity change, negative = inhibition: at 108 µM (top of the series) unless noted", "how_it_was_run": "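Purified human 12hLO (150 nM final) in 25 mM Hepes, 0.01% Triton X-100, pH 7.0 was preincubated 15 min at room temperature with compound. Then 40 uM arachidonic acid was added, 30 min. Hydroperoxide was read by Fe-XO absorbance ratio 573/405 nm.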", "values": [{"smiles": "CCCNc1nc2ccccc2nc1C(=O)Nc1cccc(C)c1", "Potency": "inactive"}, {"smiles": "Cc1csc(CNc2ncnc3ccc(-c4ccc5c(c4)OCO5)cc23)c1", "Potency": "inconclusive: 44.7 µM [inhibitor, partial curve, poor fit]"}, {"smiles": "COc1ccc(-n2c(=O)c(C#N)cc3c(=O)n4cccc(C)c4nc32)c(OC)c1", "Potency": "inconclusive: 50.1 µM [inhibitor, partial curve, poor fit]"}, {"smiles": "COc1ccc(/C=C2/SC(=S)N(CCC(=O)N3CCN(C)CC3)C2=O)cc1", "Potency": "inconclusive: 44.7 µM [inhibitor, partial curve, poor fit]"}, {"smiles": "CCc1nnc(NC(=O)c2cc(S(=O)(=O)N(C)c3ccc(OC)cc3)ccc2Cl)s1", "Potency": "inconclusive: 35.5 µM [inhibitor, single point]"}, {"smiles": "CCc1cc(=O)n(CC(=O)NC2CCCC2)c(-c2cccc(Cl)c2)n1", "Potency": "inconclusive: 39.8 µM [inhibitor, partial curve, poor fit]"}, {"smiles": "O=C(O)CC(NC(=O)C1c2ccccc2Oc2ccccc21)c1ccc(Cl)cc1", "note": "(stereo not given)", "Potency": "inconclusive: 112 µM [inhibitor, single point]"}, {"smiles": "Clc1ccc(/C=C/c2nc3ccccc3[nH]2)c(Cl)c1", "Potency": "inactive"}, {"smiles": "O=C(CC1Sc2ccccc2NC1=O)NNc1ccc(F)cc1", "note": "(stereo not given)", "Potency": "inconclusive: 50.1 µM [inhibitor, partial curve, poor fit]"}, {"smiles": "O=c1c2sccc2[nH]c(=S)n1Cc1ccccc1", "Potency": "inconclusive: 100 µM [inhibitor, partial curve, poor fit]"}, {"smiles": "Cc1ccc(NC(=O)C2=Cc3sc4c(c3CS2)CCCC4)cc1C", "Potency": "active: 7.08 µM"}, {"smiles": "CC(=O)c1ccc(N2CCCCC2)c(F)c1", "Potency": "inactive"}, {"smiles": "O=[N+]([O-])c1ccccc1/C=C/C=N/Nc1nc(N2CCCCC2)nc(N2CCCCC2)n1", "Potency": "inconclusive: 0.251 µM [inhibitor, full curve, poor fit]"}, {"smiles": "CN(C)c1nc(N)c([N+](=O)[O-])c(N2CCCCCC2)n1", "Potency": "inactive"}, {"smiles": "CCOC(=O)c1c(NC(=O)COc2ccc(C(C)(C)C)cc2)sc2c1CCCC2", "Potency": "inconclusive: 63.1 µM [inhibitor, partial curve, poor fit]"}, {"smiles": "O=C(CN1CCN(Cc2ccccc2)CC1)N/N=C/c1cccnc1", "Potency": "inconclusive: 100 µM [inhibitor, partial curve, poor fit]"}, {"smiles": "CC(C)(C)Cc1c(-c2ccc(Br)cc2)nc2ccc(Cl)cn12", "Potency": "inconclusive: 112 µM [inhibitor, single point]"}, {"smiles": "CC(OC(=O)c1nn(C)c(=O)c2ccccc12)C(=O)N1CCCc2ccccc21", "note": "(stereo not given)", "Potency": "inconclusive: 158 µM [inhibitor, single point]"}, {"smiles": "Cc1nc(C(=O)O)cc([N+](=O)[O-])c1C", "Potency": "inconclusive: 44.7 µM [inhibitor, full curve, poor fit]"}, {"smiles": "CN1CCN(c2ccc(S(=O)(=O)N3CCOCC3)cc2NC(=O)COc2ccc(F)cc2Cl)CC1", "Potency": "inconclusive: 89.1 µM [inhibitor, single point]"}, {"smiles": "COC(=O)[C@H]1C[C@@H]1[C@H](NC(=O)c1cnccn1)c1ccccc1", "Potency": "inconclusive: 3.16 µM [inhibitor, full curve, poor fit]"}, {"smiles": "Nc1nc(N)c(N=Nc2ccc(S(N)(=O)=O)cc2)c(=O)[nH]1", "Potency": "active: 39.8 µM"}, {"smiles": "COc1cc2c(cc1N)-c1ccc(N)cc1C2", "Potency": "inconclusive: 100 µM [inhibitor, partial curve, poor fit]"}, {"smiles": "O=C(CSc1nc2ccccc2c(=O)n1CCCN1CCOCC1)Nc1cccc(S(=O)(=O)N2CCCCCC2)c1", "Potency": "inactive"}, {"smiles": "COc1ccc(-c2nc3cc(C)c(Br)c(C)n3c2Cc2ccccc2)cc1OC", "Potency": "inconclusive: 4.47 µM [inhibitor, single point]"}, {"smiles": "O=c1c2c([N+](=O)[O-])cc([N+](=O)[O-])cc2nc2ccccn12", "Potency": "inconclusive: 39.8 µM [inhibitor, partial curve, poor fit]"}, {"smiles": "CCN1CCN(c2nc3c(C)cccn3c(=O)c2/C=C(\\C#N)C(=O)NC)CC1", "Potency": "inconclusive: 3.55 µM [inhibitor, full curve, poor fit]"}, {"smiles": "COc1ccc(C(=O)N(c2ccc(C)cc2)S(=O)(=O)c2ccc(C)cc2)cc1", "Potency": "inconclusive: 126 µM [inhibitor, partial curve, poor fit]"}, {"smiles": "COc1ccc(OC2CCN(C(C)=O)CC2)c(C(=O)N2CCCCC2CCO)c1", "note": "(stereo not given)", "Potency": "inconclusive: 35.5 µM [inhibitor, partial curve, poor fit]"}, {"smiles": "COc1ccc(CNC2CC(C)N(C)CC2C)cc1OC", "note": "(stereo not given)", "Potency": "inconclusive: 28.2 µM [inhibitor, partial curve, poor fit]"}, {"smiles": "COc1ccc(CN2C(=O)CS/C2=N/N=C/c2ccccc2)cc1", "activity change, negative = inhibition": "inconclusive: -31.5% [inhibitor]"}, {"smiles": "COc1ccc(-n2c(Cc3cccn3C)nnc2SCC(=O)Nc2ccccc2OC)cc1", "Potency": "inactive"}, {"smiles": "CCn1c(SCC(=O)Nc2cc(C)on2)nc2c([nH]c3ccccc32)c1=O", "Potency": "inactive"}, {"smiles": "Cc1ccc(NC(=O)NC(=O)CN2CCCC2c2ccc3c(c2)OCCO3)cc1C", "note": "(stereo not given)", "Potency": "inactive"}, {"smiles": "Cc1ccc(-c2cc(C(=O)O)c3ccc(Br)cc3n2)o1", "Potency": "inconclusive: 5.62 µM [inhibitor, full curve, poor fit]"}, {"smiles": "COc1ccc(Nc2nc(-c3cccs3)nc3ccccc23)cc1", "Potency": "inconclusive: 50.1 µM [inhibitor, full curve, poor fit]"}, {"smiles": "Oc1ccc(-c2csc(Nc3cccc4ccccc34)n2)cc1O", "Potency": "active: 12.6 µM"}, {"smiles": "COc1ccc(/C=C2\\C(=O)NC(=S)N2C(=O)c2ccc(C)cc2)cc1", "Potency": "inconclusive: 22.4 µM [inhibitor, partial curve, poor fit]"}, {"smiles": "COc1ccc(C(O)c2nc(-c3cnn(C)c3)cs2)cc1", "note": "(stereo not given)", "Potency": "inconclusive: 35.5 µM [inhibitor, partial curve, poor fit]"}, {"smiles": "CC1CCN(C(=O)CSc2nnc(NC(=O)Nc3ccccc3)s2)CC1", "Potency": "inconclusive: 50.1 µM [inhibitor, partial curve, poor fit]"}, {"smiles": "Fc1cccc(NC(=S)NCCc2c[nH]c3ccccc23)c1", "Potency": "inconclusive: 44.7 µM [inhibitor, partial curve, poor fit]"}, {"smiles": "Cc1cc(C(=O)c2ccccc2)cc(C)c1O", "Potency": "inactive"}, {"smiles": "CCCc1cc(=O)n2[nH]c(NC(=O)C(C)C)nc2n1", "Potency": "inconclusive: 3.16 µM [inhibitor, full curve, poor fit]"}, {"smiles": "COc1cc(C(=O)Nc2cc(-c3ccccc3)[nH]n2)cc(OC)c1OC", "Potency": "inactive"}, {"smiles": "CC(=O)c1sc(=S)n(Cc2ccccc2)c1C", "Potency": "inconclusive: 79.4 µM [inhibitor, single point]"}, {"smiles": "Cc1cccc(NC(=S)NN=C2CCCC2)c1C", "Potency": "active: 28.2 µM"}, {"smiles": "CCOC(=O)NC1(NCC(C)C)Oc2ccccc2O1", "Potency": "inconclusive: 50.1 µM [inhibitor, partial curve, poor fit]"}, {"smiles": "N=c1c2c3c(sc2ncn1N)CCC3", "Potency": "inconclusive: 35.5 µM [inhibitor, partial curve, poor fit]"}, {"smiles": "Cc1ccccc1CC1(CO)CCCN(Cc2nc(-c3cccs3)oc2C)C1", "note": "(stereo not given)", "Potency": "inactive"}, {"smiles": "Cc1cc(C)n(CCCNC(=O)c2cccc(C3CCNC3)c2)n1", "note": "(stereo not given)", "Potency": "inconclusive: 12.6 µM [inhibitor, full curve]"}, {"smiles": "Cc1cc(C)n(C(=O)CCCCCC(=O)n2nc(C)cc2C)n1", "Potency": "inconclusive: 100 µM [inhibitor, partial curve, poor fit]"}, {"smiles": "CC1CCCCC1NC(=O)CNC(=O)c1cccs1", "note": "(stereo not given)", "Potency": "inactive"}, {"smiles": "Cc1ccc(-n2c(SCC(=O)Nc3cc(C)on3)nc3c([nH]c4ccccc43)c2=O)cc1", "Potency": "inconclusive: 44.7 µM [inhibitor, partial curve, poor fit]"}, {"smiles": "O=c1c2c(n(CCOc3ccccc3)n1-c1ccccc1)CN(Cc1nccs1)CC2", "Potency": "inconclusive: 22.4 µM [inhibitor, partial curve, poor fit]"}, {"smiles": "O=S(=O)(c1ccc2c(c1)OCCO2)N1C[C@@H]2C[C@H]1CN2S(=O)(=O)c1c(F)cccc1F", "Potency": "inconclusive: 126 µM [inhibitor, single point]"}, {"smiles": "Cc1ccc2c(C)c(CCC(=O)NC34CC5CC(CC(C5)C3)C4)c(=O)oc2c1", "Potency": "inconclusive: 3.98 µM [inhibitor, full curve, poor fit]"}, {"smiles": "C/C(=N\\Nc1nc(-c2cc(C)ccc2C)cs1)c1cc2c(ccc3ccccc32)oc1=O", "Potency": "inconclusive: 50.1 µM [inhibitor, partial curve, poor fit]"}, {"smiles": "CCOC(=O)c1ccc(-c2ccc(C3Nc4ccccc4C(=O)N3O)o2)cc1", "note": "(stereo not given)", "Potency": "inconclusive: 56.2 µM [inhibitor, partial curve, poor fit]"}, {"smiles": "COc1ccc(Oc2ccc(C(F)(F)F)cc2NC(=O)c2ccc(F)cc2)cc1", "Potency": "inconclusive: 112 µM [inhibitor, partial curve, poor fit]"}, {"smiles": "COc1ccc(N2CCN(C(=O)CN3C(=O)NC4(CCCc5ccccc54)C3=O)CC2)cc1", "note": "(stereo not given)", "Potency": "inconclusive: 44.7 µM [inhibitor, full curve, poor fit]"}, {"smiles": "c1cncc(-c2nccc(-n3ccnc3)n2)c1", "Potency": "inconclusive: 7.08 µM [inhibitor, full curve, poor fit]"}, {"smiles": "Nc1cc(N)cc(Cc2ccccc2)c1", "Potency": "inconclusive: 44.7 µM [inhibitor, partial curve, poor fit]"}, {"smiles": "CC(C)c1ccccc1NC(=O)C1CC=CCC1", "note": "(stereo not given)", "Potency": "inactive"}, {"smiles": "CCOC(=O)CN(C)Cc1cn[nH]c1-c1ccc2cc(OC)ccc2c1", "Potency": "inconclusive: 44.7 µM [inhibitor, partial curve, poor fit]"}, {"smiles": "CCC(OC(=O)c1ccc(S(C)(=O)=O)c([N+](=O)[O-])c1)C(=O)NC1C2CC3CC(C2)CC1C3", "note": "(stereo not given)", "Potency": "inactive"}]}]}
